In PubChem BioAssay AID248 (DTP/NCI, 2004):
The list is a part of this screen's results and no random one: it gathers tests that were run many times, whatever their T/C, doses with no T/C, and many T/C values between a quarter and a half above the control. Further doses and runs are listed elsewhere. T/C is the treated group as % of the vehicle group. Some entries give survivors of the animals treated and no T/C: the source files T/C as zero there, which appears to mark a toxic dose or a test without result, not a measured value. Some survivor counts are full or nearly so, which does not show that the dose was tolerated: the source hardly ever lists a survival T/C far under the control, and the zero likely stands for such cases as well. Survivors were counted at the toxicity check, usually on the fifth day, unless a day is given; later deaths do not show. Schedule codes are those of the source, read here as Q, the interval in days (D) or hours (H), X, the number of doses. Some schedules carry Z or #; the key to these is not given. Some doses were run more than once; their values stand side by side, smallest first. For survival time, this PubChem deposit counts one and a half times the control or more as active, and values a quarter to a half above the control carry no call in these data; other NCI protocols may use other cut-offs.

Tested on: L1210 leukemia ip in BDF1 mice, survival T/C
Assay: NCI In Vivo Anticancer Drug Screen. Data for tumor model L1210 Leukemia (intraperitoneal) in B6D2F1 (BDF1) mice
Conditions: T/C endpoint: mean survival time, higher T/C = longer survival
[1] = dose: 400.0 mg/kg/injection, schedule: Q01DX001 (ip), vehicle: saline with Tween-80
[2] = dose: 100.0 mg/kg/injection, schedule: Q04DX002 (ip), vehicle: saline
[3] = dose: 200.0 mg/kg/injection, schedule: Q04DX002 (ip), vehicle: saline
[4] = dose: 400.0 mg/kg/injection, schedule: Q04DX002 (ip), vehicle: saline
[5] = dose: 400.0 mg/kg/injection, schedule: Q01DX009 (ip), vehicle: Klucel (hydroxypropylcellulose) (HPC)
[6] = dose: 400.0 mg/kg/injection, schedule: Q01DX009 (ip), vehicle: saline with Tween-80
[7] = dose: 100.0 mg/kg/injection, schedule: Q01DX001 (ip), vehicle: carboxymethylcellulose (CMC)
[8] = dose: 400.0 mg/kg/injection, schedule: Q01DX001 (ip), vehicle: carboxymethylcellulose (CMC)
[9] = dose: 100.0 mg/kg/injection, schedule: Q01DX001 (ip), vehicle: Klucel (hydroxypropylcellulose) (HPC)
[10] = dose: 400.0 mg/kg/injection, schedule: Q04DX003 (ip), vehicle: saline

Structure (SMILES): CCc1nc(Cl)c(Cl)[nH]1
- survivor count [1]: 0 of 6

Structure (SMILES): O=C1C(Cl)=C(Cl)C(=O)c2cc(Cl)c(Cl)cc21
- survivor count (dose: 20.0 mg/kg/injection, schedule: Q01DX001 (ip), vehicle: saline): 3 of 6
- survivor count (dose: 40.0 mg/kg/injection, schedule: Q01DX001 (ip), vehicle: saline): 1 of 6
- survivor count (dose: 75.0 mg/kg/injection, schedule: Q01DX001 (ip), vehicle: saline): 1 of 6
- survivor count (dose: 150.0 mg/kg/injection, schedule: Q01DX001 (ip), vehicle: saline): 4 of 6
- survivor count (dose: 300.0 mg/kg/injection, schedule: Q01DX001 (ip), vehicle: saline): 0 of 6

Structure (SMILES): CC(C)OP(=O)(N1CC1(C)C)N1CC1(C)C (stereo unspecified)
- survivor count [2]: 2 of 3
- survivor count [3]: 0 of 3
- survivor count [4]: 0 of 3

Structure (SMILES): Cc1n(Cc2ccc(Cl)cc2Cl)cc[n+]1Cc1ccccc1
- survivor count (dose: 100.0 mg/kg/injection, schedule: Q04DX003 (ip), vehicle: Klucel (hydroxypropylcellulose) (HPC)): 1 of 6
- survivor count (dose: 200.0 mg/kg/injection, schedule: Q04DX003 (ip), vehicle: Klucel (hydroxypropylcellulose) (HPC)): 0 of 6
- survivor count (dose: 400.0 mg/kg/injection, schedule: Q04DX003 (ip), vehicle: Klucel (hydroxypropylcellulose) (HPC)): 0 of 6

Structure (SMILES): COCCOC(=O)c1ccc(C(N)=NC2CCCCC2)cc1
- survivor count (dose: 400.0 mg/kg/injection, schedule: Q01DX001 (ip), vehicle: saline): 6 of 6

Structure (SMILES): O=C1C(Br)CS(=O)(=O)CC1Br (stereo unspecified)
- survivor count (dose: 12.5 mg/kg/injection, schedule: Q04DX003 (ip), vehicle: saline): 6 of 6
- survivor count (dose: 25.0 mg/kg/injection, schedule: Q04DX003 (ip), vehicle: saline): 6 of 6
- survivor count (dose: 35.0 mg/kg/injection, schedule: Q01DX009 (ip), vehicle: saline): 5 of 6
- survivor count (dose: 50.0 mg/kg/injection, schedule: Q04DX003 (ip), vehicle: Klucel (hydroxypropylcellulose) (HPC)): 3 of 6
- survivor count (dose: 50.0 mg/kg/injection, schedule: Q04DX003 (ip), vehicle: saline): 6 of 6
- survivor count (dose: 60.0 mg/kg/injection, schedule: Q01DX001 (ip), vehicle: carboxymethylcellulose (CMC)): 2 of 6
- survivor count (dose: 75.0 mg/kg/injection, schedule: Q01DX001 (ip), vehicle: carboxymethylcellulose (CMC)): 2 of 6
- survivor count (dose: 150.0 mg/kg/injection, schedule: Q01DX001 (ip), vehicle: carboxymethylcellulose (CMC)): 0 of 6
- survivor count (dose: 300.0 mg/kg/injection, schedule: Q01DX001 (ip), vehicle: carboxymethylcellulose (CMC)): 0 of 6

Structure (SMILES): O/N=C(\c1ccccc1)C1C(/C(=N/O)c2ccccc2)C1c1ccccc1 (stereo unspecified)
- survivor count (dose: 200.0 mg/kg/injection, schedule: Q04DX002 (ip), vehicle: saline with Tween-80): 3 of 3

Structure (SMILES): NNC(=O)Cc1nc2ccccc2[nH]c1=O
- survivor count [5]: 6 of 6

Structure (SMILES): O=C(Nc1ccccc1)Nc1ccccn1
- survivor count (dose: 50.0 mg/kg/injection, schedule: Q04DX003 (ip), vehicle: saline with Tween-80): 6 of 6

Structure (SMILES): CCCCCCCCCCCCCCCCCCNC(=O)Nc1cc(C(C)C)ccc1C
- survivor count (dose: 200.0 mg/kg/injection, schedule: Q01DX009 (ip), vehicle: other): 6 of 6

Structure (SMILES): CC(C)(C)OC(=O)NCCCCC(NC(=O)OCc1ccccc1)C(=O)Oc1ccc([N+](=O)[O-])cc1 (stereo unspecified)
- survivor count [6]: 6 of 6

Structure (SMILES): CCOC(=O)CCCl
- survivor count (dose: 150.0 mg/kg/injection, schedule: Q04DX003 (ip), vehicle: saline): 6 of 6

Structure (SMILES): N#CCC1=Cc2ccccc2CC1
- survivor count (dose: 100.0 mg/kg/injection, schedule: Q01DX005 (ip), vehicle: saline): 2 of 6
- survivor count (dose: 200.0 mg/kg/injection, schedule: Q01DX005 (ip), vehicle: saline): 0 of 6
- survivor count (dose: 400.0 mg/kg/injection, schedule: Q01DX005 (ip), vehicle: saline): 0 of 6

Structure (SMILES): CCOC(C)c1ccccc1 (stereo unspecified)
- survivor count (dose: 50.0 mg/kg/injection, schedule: Q01DX001 (ip), vehicle: carboxymethylcellulose (CMC)): 4 of 4
- survivor count [7]: 4 of 4
- survivor count [8]: 4 of 4

Structure (SMILES): CC(=O)NC1=C(c2ccccc2)C(=O)c2ccccc21
- T/C [9]: 125 % of control

Structure (SMILES): CN(C)c1ccc(I)cc1
- survivor count (dose: 100.0 mg/kg/injection, schedule: Q01DX001 (ip), vehicle: saline with Tween-80): 0 of 3 and 1 of 3
- survivor count (dose: 200.0 mg/kg/injection, schedule: Q01DX001 (ip), vehicle: saline with Tween-80): 0 of 3
- survivor count [1]: 0 of 3

Structure (SMILES): O=C(O)/C=C/C(=O)c1ccccc1
- survivor count (dose: 50.0 mg/kg/injection, schedule: Q01DX009 (ip), vehicle: saline with Tween-80): 0 of 3
- survivor count [7]: 2 of 4
- survivor count (dose: 100.0 mg/kg/injection, schedule: Q01DX009 (ip), vehicle: saline with Tween-80): 0 of 3
- survivor count (dose: 200.0 mg/kg/injection, schedule: Q01DX001 (ip), vehicle: carboxymethylcellulose (CMC)): 0 of 4
- survivor count (dose: 200.0 mg/kg/injection, schedule: Q01DX009 (ip), vehicle: saline with Tween-80): 0 of 3
- survivor count [8]: 0 of 4

Structure (SMILES): CC(C)COC(C[N+](=O)[O-])C(Cl)(Cl)Cl (stereo unspecified)
- survivor count [6]: 0 of 6

Structure (SMILES): O=C(O)c1cccc(F)n1
- survivor count (dose: 400.0 mg/kg/injection, schedule: Q04DX003 (ip), vehicle: saline with Tween-80): 1 of 6

Structure (SMILES): O=S1(=O)C2C=CCC1C(Cl)CC2 (stereo unspecified)
- survivor count (dose: 50.0 mg/kg/injection, schedule: Q01DX009 (ip), vehicle: Klucel (hydroxypropylcellulose) (HPC)): 1 of 6
- survivor count [9]: 0 of 6
- survivor count (dose: 200.0 mg/kg/injection, schedule: Q01DX001 (ip), vehicle: Klucel (hydroxypropylcellulose) (HPC)): 1 of 6
- survivor count (dose: 400.0 mg/kg/injection, schedule: Q01DX001 (ip), vehicle: Klucel (hydroxypropylcellulose) (HPC)): 0 of 6

Structure (SMILES): CCCCCCCCCCCCOP(=O)(N1CC1(C)C)N1CC1(C)C (stereo unspecified)
- survivor count [2]: 3 of 3
- survivor count [3]: 1 of 3
- survivor count [4]: 0 of 3

Structure (SMILES): C=CCNC(C)=O
- survivor count [10]: 6 of 6

Structure (SMILES): C[N+](C)(C)CCOC(=O)c1cccc(CBr)c1
- survivor count [10]: 0 of 6

Structure (SMILES): CCN=C(N)c1ccc(N=C(N)c2ccc(C(N)=Nc3ccc(C(N)=NCC)cc3)cc2)cc1
- survivor count (dose: 30.0 mg/kg/injection, schedule: Q01DX Z (ip), vehicle: saline): 2 of 6
- survivor count (dose: 60.0 mg/kg/injection, schedule: Q01DX Z (ip), vehicle: saline): 0 of 6
- survivor count (dose: 75.0 mg/kg/injection, schedule: Q01DX Z (oral), vehicle: saline): 4 of 6
- survivor count (dose: 120.0 mg/kg/injection, schedule: Q01DX Z (ip), vehicle: saline): 0 of 6

Structure (SMILES): COc1ccc(OC=O)cc1OC
- survivor count (dose: 400.0 mg/kg/injection, schedule: Q04DX003 (ip), vehicle: acetone): 3 of 6

Structure (SMILES): CCCCCC(CN(C)C)C(=O)/C=C/c1ccccc1 (stereo unspecified)
- survivor count (dose: 200.0 mg/kg/injection, schedule: Q01DX009 (sc), vehicle: other): 0 of 6
- survivor count (dose: 400.0 mg/kg/injection, schedule: Q04DX003 (sc), vehicle: other): 1 of 6

Structure (SMILES): NCCc1ccc(S(=O)(=O)O)cc1[N+](=O)[O-]
- survivor count [5]: 6 of 6

Structure (SMILES): N#CCOc1cc(Cl)c(Cl)cc1Cl
- survivor count (dose: 400.0 mg/kg/injection, schedule: Q04DX002 (ip), vehicle: Klucel (hydroxypropylcellulose) (HPC)): 3 of 3

Structure (SMILES): C1=CC2(OCCO2)C2CC=CC3(OCCO3)C2C1 (stereo unspecified)
- survivor count (dose: 200.0 mg/kg/injection, schedule: Q01DX009 (ip), vehicle: saline): 3 of 6
- survivor count (dose: 400.0 mg/kg/injection, schedule: Q01DX009 (ip), vehicle: saline): 2 of 6
